At least one structure is not confirmed: it was looked up by name or label, or the drawing left a doubt.
Assay: In vitro drug release in PBS using a dialysis membrane
Format: physicochemical
Conditions: HGC 3.0 wt %, drug 2.0 wt % formulations and drug controls
Experimental: The in vitro drug release profiles of the thermogel formulations were examined in PBS (pH 7.4) using a dialysis membrane. […] Then, the dialysis bags were immersed in 50 mL of PBS and incubated in a shaking water bath (SI-600R, Jeio Tech, Seoul, Korea) at 37° C. and 100 rpm or less.
After incubation, 10 ml of the release medium was taken out and the same amount of fresh medium was added again. The collected samples were analyzed by UV-Vis measurement. The DEX release profile was determined by measuring the UV absorbance of DEX at 242 nm. The experiment was performed in triplicate and data are expressed as mean±SD.
023 microspheres loaded with dexamethasone were mixed with 4 wt % of HGC hydrogel. An in vitro drug release test was conducted in a PBS (pH 7.4, 50 ml) environment in the same manner as in Example 4. Sampling was performed at days 0, 0.5, 1, 2, 4, 7, 14, 21, 28, and 30.
Dexamethasone-loaded 061 or 062 microspheres were mixed with 4 wt % of HGC hydrogel, and an in vitro drug release test therefor was conducted in the same manner as the test for the 023.

SMILES: C[C@@H]1C[C@H]2[C@@H]3CCC4=CC(=O)C=C[C@]4(C)[C@@]3(F)[C@@H](O)C[C@]2(C)[C@@]1(O)C(=O)CO [DEX, Dexamethasone]
- drug release behavior (Example 8-2): sustained release compared to DSP

— patent US20250135009A1, “INTRATYMPANIC DRUG CONTROLLED RELEASE-TYPE FORMULATION COMPRISING N-ACYLATED GLYCOL CHITOSAN” (The Industry & Academic Cooperation in Chungnam National …, priority 2021, published 2025)
